Record: PubChem BioAssay AID1259405 (NCATS, 2018)

Purpose: 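Knock-downs that lift recombinant protein yield in hamster ovary cells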 (primary screen)
System: Chinese hamster CHO-K1 ovary cells with stable secreted eGFP expression
Reagent: single siRNA against mouse genes, 0.8 pmol siRNA per well (2 µl of 400 nM stock)
Duration: 3 days
Read-out: 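Per-well intracellular GFP measured by laser scanning cytometry, plus viability from ATP luminescence, each relative to plate median of non-targeting control wells, in %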
Scale: GFP, % of control: higher = more GFP per well, higher productivity; viability (ATP), % of control: higher = more viable cells (more ATP)
Call rule: 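a knock-down is called active if GFP reaches 120% or more of non-targeting control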
The deposit covers about 50,000 reagents; shown is a random part of them. Of all reagents, about 4,000 (8%) got an active call. 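Mouse siRNA library applied to hamster cells; one well for each siRNA.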 Unmarked entries are inactive. The numbers tell different reagents against one gene apart.

gene knocked down | siRNA no. | GFP, % of control | viability (ATP), % of control
Pcif1 | 1 | 45.2 | 76.9
Pcif1 | 2 | 101 | 93.9
Pcif1 | 3 | 92.3 | 90.8
St3gal1 | 1 | 76.1 | 90.8
St3gal1 | 2 | 98.1 | 146
St3gal1 | 3 | 92.1 | 123
Btbd17 | 1 | 79.3 | 90.3
Btbd17 | 2 | 73.6 | 91.6
Btbd17 | 3 | 56.3 | 65.2
Sp140l2 | 1 | 44.6 | 61.1
Sp140l2 | 2 | 127 (active) | 78.6
Sp140l2 | 3 | 170 (active) | 116
Kif13a | 1 | 53.8 | 57.5
Kif13a | 2 | 96.8 | 76.4
Myo9a | 1 | 43.9 | 61.3
Myo9a | 2 | 52.6 | 84
Myo9a | 3 | 41.1 | 50.4

Next part, starting with the last 5 of the part before.
gene knocked down | siRNA no. | GFP, % of control | viability (ATP), % of control
Kif13a | 1 | 53.8 | 57.5
Kif13a | 2 | 96.8 | 76.4
Myo9a | 1 | 43.9 | 61.3
Myo9a | 2 | 52.6 | 84
Myo9a | 3 | 41.1 | 50.4
Zfp422 | 1 | 78.6 | 48.7
Zfp422 | 2 | 92.1 | 76.2
Zfp422 | 3 | 73.7 | 105
Xkr4 | 1 | 72.9 | 99.8
Xkr4 | 2 | 51.5 | 66.1
Xkr4 | 3 | 72.2 | 88.2
Adgre4 | 1 | 34.5 | 51.9
Adgre4 | 2 | 79.3 | 74.9
Adgre4 | 3 | 75.5 | 71.7
Gins3 | 1 | 57.7 | 66.4
Gins3 | 2 | 56.8 | 65.6
Gins3 | 3 | 60.2 | 89
Smim5 | 1 | 90.6 | 88.1
Smim5 | 2 | 40.3 | 36.9
Smim5 | 3 | 70.2 | 81.8
Ifi35 | 1 | 73.3 | 72
Ifi35 | 2 | 93.1 | 82.4
Ifi35 | 3 | 81.8 | 48.1
